The test system of the data set is primary CLL samples (PBMC from CLL patients), HLA class I ligands. The data set can be described thus: HLA class I ligandome analysis by LC-MS/MS (frequency of HLA restricted presentation). Further details: species or system human. Particulars: for Number of positive CLLs: CLL patient HLA class I ligandomes (n = 30); for Number of positive CLLs (frequency [%]): source protein (LiTAA) representation in CLL patient HLA class I ligandomes (n = 30).

B1: T-cell activation RhoGTPase activating protein (protein, UniProt Q8N103 1-731, looked up)
T-cell activation Rho …: MKLRSSHNASKTLNANNMETLIECQSEGDIKEHPLLASCESEDSICQLIEVKKRKKVLSWPFLMRRLSPASDFSGALETDLKASLFDQPLSIICGDSDTLPRPIQDILTILCLKGPSTEGIFRRAANEKARKELKEELNSGDAVDLERLPVHLLAVVFKDFLRSIPRKLLSSDLFEEWMGALEMQDEEDRIEALKQVADKLPRPNLLLLKHLVYVLHLISKNSEVNRMDSSNLAICIGPNMLTLENDQSLSFEAQKDLNNKVKTLVEFLIDNCFEIFGENIPVHSSITSDDSLEHTDSSDVSTLQNDSAYDSNDPDVESNSSSGISSPSRQPQVPMATAAGLDSAGPQDAREVSPEPIVSTVARLKSSLAQPDRRYSEPSMPSSQECLESRVTNQTLTKSEGDFPVPRVGSRLESEEAEDPFPEEVFPAVQGKTKRPVDLKIKNLAPGSVLPRALVLKAFSSSSLDASSDSSPVASPSSPKRNFFSRHQSFTTKTEKGKPSREIKKHSMSFTFAPHKKVLTKNLSAGSGKSQDFTRDHVPRGVRKESQLAGRIVQENGCETHNQTARGFCLRPHALSVDDVFQGADWERPGSPPSYEEAMQGPAARLVASESQTVGSMTVGSMRARMLEAHCLLPPLPPAHHVEDSRHRGSKEPLPGHGLSPLPERWKQSRTVHASGDSLGHVSGPGRPELLPLRTVSESVQRNKRDCLVRRCSQPVFEADQFQYAKESYI
notes: LiTAA source protein
For the molecule B1, the “Number of positive CLLs” value was found to be 10 and the “Number of positive CLLs (frequency [%])” value turned out to be 33.3%.

B2: CTD phosphatase, subunit 1 (protein, UniProt Q9Y5B0 1-961, looked up)
RNA polymerase II subunit A …: MEVPAAGRVPAEGAPTAAVAEVRCPGPAPLRLLEWRVAAGAAVRIGSVLAVFEAAASAQSSGASQSRVASGGCVRPARPERRLRSERAGVVRELCAQPGQVVAPGAVLVRLEGCSHPVVMKGLCAECGQDLTQLQSKNGKQQVPLSTATVSMVHSVPELMVSSEQAEQLGREDQQRLHRNRKLVLMVDLDQTLIHTTEQHCQQMSNKGIFHFQLGRGEPMLHTRLRPHCKDFLEKIAKLYELHVFTFGSRLYAHTIAGFLDPEKKLFSHRILSRDECIDPFSKTGNLRNLFPCGDSMVCIIDDREDVWKFAPNLITVKKYVYFQGTGDMNAPPGSRESQTRKKVNHSRGTEVSEPSPPVRDPEGVTQAPGVEPSNGLEKPARELNGSEAATPRDSPRPGKPDERDIWPPAQAPTSSQELAGAPEPQGSCAQGGRVAPGQRPAQGATGTDLDFDLSSDSESSSESEGTKSSSSASDGESEGKRGRQKPKAAPEGAGALAQGSSLEPGRPAAPSLPGEAEPGAHAPDKEPELGGQEEGERDGLCGLGNGCADRKEAETESQNSELSGVTAGESLDQSMEEEEEEDTDEDDHLIYLEEILVRVHTDYYAKYDRYLNKEIEEAPDIRKIVPELKSKVLADVAIIFSGLHPTNFPIEKTREHYHATALGAKILTRLVLSPDAPDRATHLIAARAGTEKVLQAQECGHLHVVNPDWLWSCLERWDKVEEQLFPLRDDHTKAQRENSPAAFPDREGVPPTALFHPMPVLPKAQPGPEVRIYDSNTGKLIRTGARGPPAPSSSLPIRQEPSSFRAVPPPQPQMFGEELPDAQDGEQPGPSRRKRQPSMSETMPLYTLCKEDLESMDKEVDDILGEGSDDSDSEKRRPEEQEEEPQPRKPGTRRERTLGAPASSERSAAGGRGPRGHKRKLNEEDAASESSRESSNEDEGSSSEADEMAKALEAELNDLM
notes: LiTAA source protein
In the case of B2, the “Number of positive CLLs” value was 11 and the “Number of positive CLLs (frequency [%])” value is recorded as 36.7%.
